The values below come from article PMC11238352, “Combination of dual JAK/HDAC inhibitor with regorafenib synergistically reduces tumor growth, metastasis, and regorafenib-induced toxicity in colorectal cancer” (Journal of Experimental & Clinical Cancer Research : CR, 2024).

For one series, the system named is SW480 cells. The experiment in a line: ATAC-seq chromatin accessibility. In kind it is cell-based. Particulars: SW480, vs. DMSO, 6 h.
A further series has as its system RKO cells. The experiment in a line: ATAC-seq chromatin accessibility. It is filed as cell-based. As to conditions: vs. DMSO, 6 h.

Some results come without the dose or concentration used.

For the compound `CNC(=O)c1cc(Oc2ccc(NC(=O)Nc3ccc(Cl)c(C(F)(F)F)c3)c(F)c2)ccn1` [regorafenib], in the series on SW480 cells, the “hyper-accessible regions (ATAC-seq)” value amounted to 1408 and the “hypo-accessible regions (ATAC-seq)” value came to 1552. Besides, in the series on RKO cells, the “hyper-accessible regions (ATAC-seq)” value came to 277 and the “hypo-accessible regions (ATAC-seq)” value came out at 419.
